According to US5840867:

System: thrombin
Test: inhibition of the protein
Conditions: 20 uM control DNA, 10 nM thrombin; 24 s thrombin alone; purified native protein; protein details: Sigma T-6759; single-stranded DNA; variant of consensus 7-mer GGTTGGG; counted as no effect

## GGGGGTT [control 7-mer GGGGGTT]
  functional effect of the aptamer (s clotting time): 26
